According to patent publication US20230009539A1:
These are yes or no findings as the source states them, for the method shown. Binding seen in cells or lysates may run through a third protein. Some entries that bind do so weakly or less than the wild type.

Sequences of proteins named here, by UniProt entry; tags and fusion partners are left off.
UniProt O43734: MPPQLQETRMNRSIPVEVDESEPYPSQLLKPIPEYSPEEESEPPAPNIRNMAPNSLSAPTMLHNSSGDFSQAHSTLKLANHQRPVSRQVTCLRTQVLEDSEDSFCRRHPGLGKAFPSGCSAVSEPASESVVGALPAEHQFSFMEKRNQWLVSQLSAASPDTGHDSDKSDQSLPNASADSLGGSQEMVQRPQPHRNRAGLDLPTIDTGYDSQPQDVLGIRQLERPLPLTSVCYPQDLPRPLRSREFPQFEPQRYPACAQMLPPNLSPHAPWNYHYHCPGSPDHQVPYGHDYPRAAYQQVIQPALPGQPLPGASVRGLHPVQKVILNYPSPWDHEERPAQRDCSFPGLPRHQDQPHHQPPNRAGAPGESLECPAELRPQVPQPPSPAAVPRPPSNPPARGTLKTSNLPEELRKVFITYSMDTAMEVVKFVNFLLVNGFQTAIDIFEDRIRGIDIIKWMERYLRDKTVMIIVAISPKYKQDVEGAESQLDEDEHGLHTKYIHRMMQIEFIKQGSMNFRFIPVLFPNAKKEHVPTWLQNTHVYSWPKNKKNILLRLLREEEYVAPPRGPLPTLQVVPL

Tests used:
[1] = target: T1, IKKi (endogenous, HeLa cells) (human (HeLa cells)) (UniProt Q14164); assay: co-immunoprecipitation with anti-Act1 from HeLa cells, IL-17 0, 15, 30, 60 min, control IgG at 0 and 15 min, Western blot
T1 sequence (looked up): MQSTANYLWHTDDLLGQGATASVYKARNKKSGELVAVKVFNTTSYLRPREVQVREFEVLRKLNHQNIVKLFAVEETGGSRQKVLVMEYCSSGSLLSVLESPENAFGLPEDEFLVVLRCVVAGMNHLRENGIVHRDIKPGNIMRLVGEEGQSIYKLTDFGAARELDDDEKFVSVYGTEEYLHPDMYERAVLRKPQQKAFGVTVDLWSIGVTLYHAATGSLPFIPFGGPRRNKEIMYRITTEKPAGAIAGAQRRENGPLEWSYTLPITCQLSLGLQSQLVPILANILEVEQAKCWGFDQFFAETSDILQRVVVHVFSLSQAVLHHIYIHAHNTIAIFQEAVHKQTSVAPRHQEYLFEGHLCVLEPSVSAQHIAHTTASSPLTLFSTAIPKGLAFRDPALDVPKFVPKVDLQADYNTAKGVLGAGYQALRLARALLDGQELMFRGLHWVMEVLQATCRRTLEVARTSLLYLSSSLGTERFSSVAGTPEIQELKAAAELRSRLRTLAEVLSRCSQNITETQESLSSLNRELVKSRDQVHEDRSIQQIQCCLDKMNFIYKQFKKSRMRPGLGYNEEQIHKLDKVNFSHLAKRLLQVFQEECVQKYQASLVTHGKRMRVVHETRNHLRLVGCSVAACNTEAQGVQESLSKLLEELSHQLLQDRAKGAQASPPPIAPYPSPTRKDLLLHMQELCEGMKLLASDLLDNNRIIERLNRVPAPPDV

[2] = target: T2, TBK1 (endogenous, HeLa cells) (human (HeLa cells)) (UniProt Q9UHD2); assay: as above
T2 sequence (looked up): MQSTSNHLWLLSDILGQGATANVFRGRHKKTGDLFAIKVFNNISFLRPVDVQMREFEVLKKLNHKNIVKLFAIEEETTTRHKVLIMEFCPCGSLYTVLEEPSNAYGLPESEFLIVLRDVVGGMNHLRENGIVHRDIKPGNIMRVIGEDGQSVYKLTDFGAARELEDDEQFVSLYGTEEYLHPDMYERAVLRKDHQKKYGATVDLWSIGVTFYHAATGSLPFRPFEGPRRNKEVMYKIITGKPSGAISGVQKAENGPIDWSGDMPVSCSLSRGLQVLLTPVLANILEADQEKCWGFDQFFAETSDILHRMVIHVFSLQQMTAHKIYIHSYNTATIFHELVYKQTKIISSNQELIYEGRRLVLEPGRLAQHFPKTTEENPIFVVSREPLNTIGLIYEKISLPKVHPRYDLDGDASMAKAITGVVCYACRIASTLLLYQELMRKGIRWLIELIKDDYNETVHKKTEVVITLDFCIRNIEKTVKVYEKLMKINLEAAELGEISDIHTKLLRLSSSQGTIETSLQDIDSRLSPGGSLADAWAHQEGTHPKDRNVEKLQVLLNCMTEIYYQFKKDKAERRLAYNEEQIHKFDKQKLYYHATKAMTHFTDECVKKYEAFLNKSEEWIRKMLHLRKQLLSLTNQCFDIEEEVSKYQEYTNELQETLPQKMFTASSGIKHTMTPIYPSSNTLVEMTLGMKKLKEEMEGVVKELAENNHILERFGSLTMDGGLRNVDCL

- binding [1]: binds
- binding [2]: binds
Substance: Act1 (endogenous, HeLa cells) (from UniProt O43734 1-574)
